Experimental data taken from publication PMC12587161, “Chidamide (a Histone Deacetylase Inhibitor) Plus Abiraterone in Metastatic Castration‐Resistant Prostate Cancer (mCRPC): A Phase Ib Trial” (MedComm, 2025).

System: C4-2 cells
Test: RNA-seq and GSEA of treated CRPC cells
Type: cell-based
Conditions: chidamide 0.5 µM, DHT 10 nM as control

Nc1cc(F)ccc1NC(=O)c1ccc(CNC(=O)/C=C/c2cccnc2)cc1 [chidamide, Chidamide]
Genes downregulated (RNA-seq): 142 genes | Genes upregulated (RNA-seq): 29 genes | Pathways enriched (GSEA): IFN‐α and IFN‐γ responses, allograft rejection and apoptosis‐related pathways were enriched
